# From PubChem BioAssay (NCATS)
# The chains behind the UniProt entries cited, without tags or fusion partners. Where a name states a change or a piece, a line headed by the entry shows the natural chain unless it says otherwise.
# UniProt Q9BV86: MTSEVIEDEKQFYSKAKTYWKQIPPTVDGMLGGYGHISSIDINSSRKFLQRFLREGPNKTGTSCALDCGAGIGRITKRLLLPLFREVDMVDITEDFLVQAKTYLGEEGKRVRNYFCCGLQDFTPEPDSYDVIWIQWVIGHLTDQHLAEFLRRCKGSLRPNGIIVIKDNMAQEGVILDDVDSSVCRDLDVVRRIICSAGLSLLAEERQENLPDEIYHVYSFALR
# UniProt P09958, whole entry, looked up: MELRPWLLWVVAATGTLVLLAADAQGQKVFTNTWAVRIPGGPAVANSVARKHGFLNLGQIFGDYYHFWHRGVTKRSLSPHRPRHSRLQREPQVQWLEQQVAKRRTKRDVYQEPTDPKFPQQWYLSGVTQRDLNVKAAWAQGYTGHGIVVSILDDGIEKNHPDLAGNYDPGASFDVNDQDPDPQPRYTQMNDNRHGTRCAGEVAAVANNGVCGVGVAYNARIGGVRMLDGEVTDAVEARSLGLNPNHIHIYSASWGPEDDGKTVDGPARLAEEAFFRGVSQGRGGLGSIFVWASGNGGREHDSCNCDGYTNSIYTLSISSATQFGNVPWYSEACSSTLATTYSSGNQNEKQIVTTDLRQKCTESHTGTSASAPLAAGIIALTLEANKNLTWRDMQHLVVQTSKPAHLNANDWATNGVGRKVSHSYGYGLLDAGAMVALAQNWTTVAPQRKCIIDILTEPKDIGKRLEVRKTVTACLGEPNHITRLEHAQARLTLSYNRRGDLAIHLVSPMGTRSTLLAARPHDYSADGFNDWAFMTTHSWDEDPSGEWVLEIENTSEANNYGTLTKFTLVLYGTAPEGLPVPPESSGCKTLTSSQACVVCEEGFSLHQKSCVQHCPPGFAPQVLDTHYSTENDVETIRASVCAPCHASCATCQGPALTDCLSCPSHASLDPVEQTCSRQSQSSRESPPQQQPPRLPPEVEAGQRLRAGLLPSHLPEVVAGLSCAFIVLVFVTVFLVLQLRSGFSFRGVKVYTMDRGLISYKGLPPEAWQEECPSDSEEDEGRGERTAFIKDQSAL
# Where “and” joins values, the source holds several entries; their conditions need not be identical. Equal entries are not always repeated. Inconclusive results, whose numbers are uncertain, are shown with a selection of clear calls. Where the call is inconclusive, the potency comes from a doubtful curve fit. Calls of active or inactive are those of the source. Calls come from the whole dose curve; as a rule, active = well fitted curve in the direction sought with a large enough effect; inconclusive = small, poorly fitted or top-dose-only effect, or another doubt; inactive = no such curve, though single readings can be large; an effect the other way counts as inactive or inconclusive.
# Legend:
# [1] = qHTS of pediatric cancer cell lines to identify multiple opportunities for drug repurposing: Confirmatory screen for OHS-50 cells (AID 1347128); details: OHS-50 osteosarcoma cells viability; series mostly up to 45.9 µM;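 note: compound exposure lasted 48 h at 37 degrees C; nearly all actives have a fitted effect of over 55% in size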
# Procedure, shortened: (§1)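 Viability after 48 h compound treatment at 37C, 500-1,000 cells/well, read as ATP luminescence with CellTiter-Glo. Primary screens used 11-point (MIPE, 0.78 nM-46 µM) or 8-point (NPC, 0.59 nM-46 µM) final concentrations; follow-up screens used 11-point dilutions.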
# [2] = qHTS of pediatric cancer cell lines to identify multiple opportunities for drug repurposing: Confirmatory screen for SK-N-SH cells (AID 1347129);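 note: cells exposed to compound for 48 h before viability read; nearly all actives have a fitted effect of over 60% in size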
# Procedure, shortened: as §1
# [3] = test system: Zika virus NS2B-NS3 protease; assay: Primary screen GU AMC qHTS for Zika virus inhibitors (AID 1347154); note: nearly all actives have a fitted effect of over 70% in size
# Procedure, shortened: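 Unlinked Zika NS2B hydrophilic domain–NS3 protease complex at 25 nM in 10 mM Tris-HCl pH 8.0, 0.01% Tween 20, with an AMC peptide substrate. Fluorescence change (340/450 nm) over 15 min at room temperature, normalized to controls, fitted to 4-parameter Hill.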
# [4] = molecular target: N-terminal Xaa-Pro-Lys N-methyltransferase 1 (Homo sapiens) (UniProt Q9BV86); assay: qHTS Assay for Inhibitors of N-terminal methyltransferase 1 (NTMT1): LOPAC validation of the NTMT1 SAHH-coupled ThioGlo3 Assay (AID 1347143);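 note: SAH from peptide methylation measured as thiol fluorescence via SAHH coupling and ThioGlo3; nearly all actives have a fitted effect of over 70% in size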
# Procedure, shortened: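 Steps: dispense 125nM NTMT1; pin-transfer test compounds at several concentrations, with 1uM RCC1-6 peptide as control; incubate 1 min; start with reagent holding 100uM SAM, 10uM SAHH, 15uM ThioGlo3; read at 0 and 30 min.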
# Furin (Homo sapiens) = Furin (Homo sapiens) (UniProt P09958); assay: Furin counterscreen qHTS for Zika virus inhibitors (AID 1347149); note: nearly all actives have a fitted effect of over 70% in size
# Procedure, shortened: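 Counterscreen measures cleavage of 2 microM BOC-RVRR-AMC, below its ~15 microM Km, by 5 nM full-length human furin at pH 7.0 after a 15-min compound preincubation. Inhibition derives from the 15-min fluorescence increase at 37C.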
# [5] = test system: Zika virus NS2B-NS3 protease (linked construct); assay: Confirmatory screen NINDS AMC qHTS for Zika virus inhibitors (AID 1347152); note: nearly all actives have a fitted effect of over 70% in size
# Procedure, shortened: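 Enzyme (1 nM, linked construct) was preincubated with compound for 15 minutes at room temperature in 10 mM Tris-HCl pH 8.0 with 0.01% Tween 20. Bz-Nle-Lys-Arg-Arg-AMC was then added to 10 microM, and AMC fluorescence was recorded immediately and after 15 minutes.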
# Potency is the fitted concentration of half-maximal effect.
compound,measurement,setting,value
CC1CCc2c(N3CCC(O)CC3)c(F)cc3c(=O)c(C(=O)O)cn1c23 (configuration not stated),Potency,[1],"inconclusive: 29.3 µM [cytotoxic, partial curve]"
same,Potency,[2],inactive
same,Potency,[3],"inconclusive: 28.7 µM [inhibitor, partial curve, poor fit]"
CCC(C=C[C@@H]1OC(=O)C=C[C@H]1C)=C[C@H](C)CC=CC(C)=C[C@@H](C)C(=O)[C@@H](C)[C@H](O)[C@@H](C)CC(C)=CC(=O)O,Potency,[1],active: 0.0161 µM
same,Potency,[2],"inconclusive: 0.0139 µM [cytotoxic, full curve]"
Cc1cc(CS(=O)(=O)c2ccccc2)cc(OCc2ccc(CN3CCC[C@H]3CO)cc2)c1,Potency,[1],"inconclusive: 20.8 µM [cytotoxic, partial curve, poor fit]"
same,Potency,[2],"inconclusive: 18.7 µM [cytotoxic, single point]"
CC(=O)Oc1ccc(C(c2ccc(OC(C)=O)cc2)c2ccccn2)cc1,Potency,[1],"inconclusive: 2.93 µM [cytotoxic, full curve]"
same,Potency,[2],inactive
Cc1nn(Cc2ccccc2Cl)c(C)c1CN(C)CC(O)COc1ccc(Cl)cc1 (configuration not stated),Potency,[1],"inconclusive: 26.1 µM [cytotoxic, partial curve, poor fit]"
same,Potency,[2],"inconclusive: 29.6 µM [cytotoxic, single point]"
CN[C@H]1CCc2cc(OC)c(OC)c(OC)c2-c2ccc(OC)c(=O)cc21,Potency,[1],"inconclusive: 0.0928 µM [cytotoxic, full curve]"
same,Potency,[2],"inconclusive: 0.0935 µM [cytotoxic, full curve]"
Oc1cccc(-c2nc(N3CCOCC3)c3oc4ncccc4c3n2)c1,Potency,[1],active: 3.02 µM
same,Potency,[2],active: 4.18 µM
same,Potency,[3],"inconclusive: 3.12 µM [inhibitor, partial curve, poor fit]"
COc1ccc(C=Cc2cc(OC)c(OC)c(OC)c2)cc1NC(=O)[C@H](N)CO,Potency,[1],"inconclusive: 0.0414 µM [cytotoxic, full curve]"
same,Potency,[2],"inconclusive: 0.0469 µM [cytotoxic, full curve]"
Nc1[nH]nc2nnc(-c3c(-c4ccccc4)nn4ccccc34)cc12,Potency,[1],"inconclusive: 29.3 µM [cytotoxic, single point]"
CCOC(=O)N1CCN([N+]([O-])=NOc2ccc([N+](=O)[O-])cc2C#N)CC1,Potency,[1],"inconclusive: 2.93 µM [cytotoxic, full curve]"
same,Potency,[2],"inconclusive: 1.18 µM [cytotoxic, full curve]"
same,Potency,[3],inactive
Cc1ccc(S(=O)(=O)Nc2nc3ccccc3nc2Nc2ccc3nsnc3c2)cc1,Potency,[1],"inconclusive: 18.2 µM [cytotoxic, single point]"
same,Potency,[2],inactive
Nc1ncnc2c1ncn2[C@@H]1O[C@H](CO)[C@@H](O)[C@@H]1O,Potency,[1],"inconclusive: 10.4 µM [cytotoxic, full curve, poor fit]"
COc1ccc(S(=O)(=O)Nc2cccnc2Nc2ccc(O)cc2)cc1,Potency,[1],"inconclusive: 0.827 µM [cytotoxic, full curve]"
same,Potency,[2],"inconclusive: 0.935 µM [cytotoxic, partial curve, poor fit]"
CC#C[C@]1(O)CC[C@H]2[C@@H]3CCC4=CC(=O)CCC4=C3[C@@H](c3ccc(N(C)C)cc3)C[C@@]21C,Potency,[1],"inconclusive: 23.3 µM [cytotoxic, single point]"
same,Potency,[2],"inconclusive: 29.6 µM [cytotoxic, single point]"
CN(C)CCN(C)C(=O)c1ccc(NC(=O)Nc2ccc(-c3nc(N4CCOCC4)c4ccn(CC(F)(F)F)c4n3)cc2)cc1,Potency,[1],"inconclusive: 1.04 µM [cytotoxic, full curve]"
same,Potency,[2],active: 4.69 µM
CC1(C)O[C@@H]2C[C@H]3[C@@H]4CCC5=CC(=O)CC[C@]5(C)[C@@]4(F)[C@@H](O)C[C@]3(C)[C@]2(C(=O)CCl)O1,Potency,[1],inactive
same,Potency,[2],"inconclusive: 33.2 µM [cytotoxic, partial curve, poor fit]"
C[C@@H]1C[C@H]2[C@@H]3CCC4=CC(=O)C=C[C@]4(C)[C@@]3(F)[C@@H](O)C[C@]2(C)[C@@]1(O)C(=O)CO,Potency,[1],inactive
CNC(=O)c1ccccc1Nc1nc(Nc2ccc(N3CCOCC3)cc2OC)ncc1Cl,Potency,[1],active: 2.93 µM
same,Potency,[2],active: 1.18 µM
C[C@]12C=CC(=O)C=C1CC[C@H]1[C@@H]3C[C@@H](O)[C@](O)(C(=O)CO)[C@@]3(C)C[C@H](O)[C@@]12F,Potency,[1],"inconclusive: 6.57 µM [cytotoxic, full curve]"
same,Potency,[4],inactive
COc1cc(C=CC(=O)CC(=O)C=Cc2ccc(O)c(OC)c2)ccc1O,Potency,[1],"inconclusive: 38 µM [cytotoxic, partial curve]"
same,Potency,[2],"inconclusive: 67.9 µM [cytotoxic, single point]"
same,Potency,[3],"inconclusive: 55.5 µM [inhibitor, partial curve, poor fit]"
O=C1NC(=O)C(c2cnc3ccccn23)=C1c1cn2c3c(cccc13)CN(C(=O)N1CCOCC1)CC2,Potency,[1],active: 10.4 µM
same,Potency,[2],"inconclusive: 9.35 µM [cytotoxic, full curve]"
same,Potency,[3],"inconclusive: 15.2 µM [inhibitor, partial curve]"
CC(C)(C(=O)c1cccnc1)c1cccnc1,Potency,[1],inactive
CC(=O)O[C@]1(C(C)=O)CC[C@H]2[C@@H]3C[C@H](C)C4=CC(=O)CC[C@]4(C)[C@H]3CC[C@@]21C,Potency,[1],"inconclusive: 18.5 µM [cytotoxic, partial curve]"
same,Potency,[2],"inconclusive: 33.2 µM [cytotoxic, single point]"
same,Potency,[3],inactive
CNNCc1ccc(C(=O)NC(C)C)cc1,Potency,[1],inactive
Oc1c(Cl)cc(Cl)c2cccnc12,Potency,[1],"inconclusive: 9.27 µM [cytotoxic, full curve]"
CO[C@@]12[C@H](COC(N)=O)C3=C(C(=O)C(C)=C(N)C3=O)N1C[C@@H]1N[C@@H]12,Potency,[1],"inconclusive: 0.737 µM [cytotoxic, full curve]"
same,Potency,[2],active: 14.8 µM
NS(=O)(=O)OC[C@@H]1C[C@@H](n2ccc3c(N[C@H]4CCc5ccccc54)ncnc32)C[C@H]1O,Potency,[1],inactive
same,Potency,[2],"inconclusive: 20.9 µM [cytotoxic, single point]"
same,Potency,[3],inactive
O=C(O)c1ccc(Nc2ncc3c(n2)-c2ccc(Cl)cc2C(c2c(F)cccc2F)=NC3)cc1,Potency,[1],inactive
same,Potency,[2],"inconclusive: 0.662 µM [cytotoxic, full curve, poor fit]"
same,Potency,[3],"inconclusive: 21.5 µM [inhibitor, partial curve]"
COC(=O)c1ccc2c(C(=Nc3ccc(N(C)C(=O)CN4CCN(C)CC4)cc3)c3ccccc3)c(O)[nH]c2c1,Potency,[1],active: 14.7 µM
same,Potency,[2],"inconclusive: 7.43 µM [cytotoxic, single point]"
O=C(c1ccc(OCCN2CCCCC2)cc1)c1c(-c2ccc(O)cc2)sc2cc(O)ccc12,Potency,[1],"inconclusive: 23.3 µM [cytotoxic, single point]"
same,Potency,[2],"inconclusive: 26.4 µM [cytotoxic, single point]"
same,Potency,[4],"inconclusive: 79.4 µM [inhibitor, partial curve]"
Cc1cnc(Nc2ccc(F)cc2Cl)nc1-c1c[nH]c(C(=O)N[C@H](CO)c2cccc(Cl)c2)c1,Potency,[1],"inconclusive: 29.3 µM [cytotoxic, partial curve, poor fit]"
same,Potency,[2],active: 18.7 µM
same,Potency,[3],"inconclusive: 15.2 µM [inhibitor, partial curve]"
C[N+](C)([O-])CCNc1ccc(NCC[N+](C)(C)[O-])c2c1C(=O)c1c(O)ccc(O)c1C2=O,Potency,[1],"inconclusive: 32.9 µM [cytotoxic, single point]"
CC[C@]1(O)C[C@@H]2CN(CCc3c([nH]c4ccccc34)[C@@](C(=O)OC)(c3cc4c(cc3OC)N(C)[C@H]3[C@@](O)(C(=O)OC)[C@H](OC(C)=O)[C@]5(CC)C=CCN6CC[C@]43[C@@H]65)C2)C1,Potency,[1],"inconclusive: 465 nM [cytotoxic, full curve] and inconclusive: 1.85 µM [cytotoxic, full curve, poor fit]"
same,Potency,[2],"inconclusive: 0.0833 µM [cytotoxic, full curve]"
NC(=O)NO,Potency,[1],inactive
same,Potency,[2],"inconclusive: 0.469 µM [cytotoxic, full curve, poor fit]"
CN(C)/N=N/c1nc[nH]c1C(N)=O,Potency,[1],"inconclusive: 14.7 µM [cytotoxic, partial curve]"
same,Potency,[2],inactive
CC(C(=O)O)c1ccc2c(c1)CC(=O)c1ccccc1S2 (configuration not stated),Potency,[1],inactive
same,Potency,[2],inactive
C#Cc1cccc(Nc2ncnc3cc(OCCOC)c(OCCOC)cc23)c1,Potency,[1],"inconclusive: 36.9 µM [cytotoxic, single point]"
same,Potency,[3],"inconclusive: 42.9 µM [inhibitor, single point]"
O=C1NC(=O)C(=Cc2ccc3nccc(-c4ccncc4)c3c2)S1,Potency,[1],active: 7.37 µM
same,Potency,[3],"inconclusive: 30.4 µM [inhibitor, single point]"
CCCC(=O)O[C@]1(C(=O)CO)CC[C@H]2[C@@H]3CCC4=CC(=O)CC[C@]4(C)[C@H]3[C@@H](O)C[C@@]21C,Potency,[2],"inconclusive: 29.6 µM [cytotoxic, single point]"
CC(=O)[C@]1(O)Cc2c(O)c3c(c(O)c2[C@@H](O[C@H]2C[C@H](N)[C@@H](O)[C@H](C)O2)C1)C(=O)c1ccccc1C3=O,Potency,[2],active: 0.209 µM
Nc1c2ccccc2nc2ccccc12,Potency,[2],active: 8.33 µM
same,Potency,[3],active: 35.5 µM
Cc1ccc(C(=O)Nc2cccc(C(F)(F)F)c2)cc1-c1ccc2nc(NCCN3CCOCC3)ncc2c1,Potency,[2],inactive
same,Potency,Furin (Homo sapiens),"inconclusive: 17.1 µM [inhibitor, partial curve, poor fit]"
same,Potency,[5],"inconclusive: 27.1 µM [inhibitor, single point]"
same,Potency,[3],"inconclusive: 34.1 µM [inhibitor, single point]"

# Not a retest: entries from further up.
compound,measurement,setting,value
CN(C)/N=N/c1nc[nH]c1C(N)=O,Potency,[2],inactive
CC(C(=O)O)c1ccc2c(c1)CC(=O)c1ccccc1S2 (configuration not stated),Potency,[1],inactive
same,Potency,[2],inactive
C#Cc1cccc(Nc2ncnc3cc(OCCOC)c(OCCOC)cc23)c1,Potency,[1],"inconclusive: 36.9 µM [cytotoxic, single point]"
same,Potency,[3],"inconclusive: 42.9 µM [inhibitor, single point]"
O=C1NC(=O)C(=Cc2ccc3nccc(-c4ccncc4)c3c2)S1,Potency,[1],active: 7.37 µM
same,Potency,[3],"inconclusive: 30.4 µM [inhibitor, single point]"
CCCC(=O)O[C@]1(C(=O)CO)CC[C@H]2[C@@H]3CCC4=CC(=O)CC[C@]4(C)[C@H]3[C@@H](O)C[C@@]21C,Potency,[2],"inconclusive: 29.6 µM [cytotoxic, single point]"
CC(=O)[C@]1(O)Cc2c(O)c3c(c(O)c2[C@@H](O[C@H]2C[C@H](N)[C@@H](O)[C@H](C)O2)C1)C(=O)c1ccccc1C3=O,Potency,[2],active: 0.209 µM
Nc1c2ccccc2nc2ccccc12,Potency,[2],active: 8.33 µM
same,Potency,[3],active: 35.5 µM
Cc1ccc(C(=O)Nc2cccc(C(F)(F)F)c2)cc1-c1ccc2nc(NCCN3CCOCC3)ncc2c1,Potency,[2],inactive
same,Potency,Furin (Homo sapiens),"inconclusive: 17.1 µM [inhibitor, partial curve, poor fit]"
same,Potency,[5],"inconclusive: 27.1 µM [inhibitor, single point]"
